Measurements reported in PubChem BioAssay AID1224826 (NIAID, 2016)
Screen: 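Regulators of Tlr4 signalling leading to Tnf-alpha expression in macrophages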 (primary screen). Cell system: RAW264.7 G9 macrophages from mouse bearing reporters for p65 (GFP) and the Tnf promoter (mCherry). Reagents: siRNA pool against mouse genes, 100 nM. Timing: 16 h of LPS stimulation, after 2 days of siRNA transfection. Treatment: bacterial lipopolysaccharide (Salmonella minnesota R595), 10 ng/ml. Measurement: 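Imaged Tnf reporter mCherry in nuclei, minus background, normalised per plate to the median and expressed as robust z-scores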. Direction: Tnf reporter robust z-score: higher = stronger Tnf promoter reporter signal after LPS; Tnf reporter intensity: higher = stronger Tnf promoter reporter signal. Active means: 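a well counts as active at a score of -1.3 or below (Tlr4 knock-down control median) or above 3 (raised signal); controls and wells holding fewer than 50 cells are excluded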. Meaning of the calls: active = Tnf reporter clearly lowered or raised; inactive = no clear change in Tnf reporter.
This is one part, drawn at random, of about 17,000 reagents. Over the whole deposit, about 1,110 (6.6%) got an active call. 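Active means lowered or raised reporter signal; replicate intensities are raw and not normalised per plate.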 A number with no mark means an inactive call. Reagents against one gene are numbered here.

gene symbol | reagent | Tnf reporter robust z-score | fewer than 50 cells in well | Tnf reporter intensity, replicate 1 | Tnf reporter intensity, replicate 2
Plxnb2 | 1 | – | fewer than 50 cells per well; well left out of calls | 121 | 99.6
Fgl2 | 1 | 0.76 | enough cells in well | 337 | 155
Ahctf1 | 1 | -0.43 | enough cells in well | 180 | 214
Vps45 | 1 | -0.71 | enough cells in well | 83.7 | 73.5
Ssu2 | 1 | – | fewer than 50 cells per well; well left out of calls | 29.5 | 47.3
Plekhm1 | 1 | 1.7 | enough cells in well | 232 | 176
Med12 | 1 | -1.18 | enough cells in well | 135 | 83.5
Msantd4 | 1 | 0.7 | enough cells in well | 267 | 188
V1rb6 (retired record) | 1 | -1.67 (active) | enough cells in well | 47.3 | 42.9
Pou2f2 | 1 | -0.31 | enough cells in well | 99.6 | 133
Kcnj15 | 1 | 0.6 | enough cells in well | 221 | 166
Tcf20 | 1 | -1.31 (active) | enough cells in well | 148 | 63.2
Tent5b | 1 | – | fewer than 50 cells per well; well left out of calls | 154 | 53.8
Glis2 | 1 | -0.59 | enough cells in well | 192 | 149
Lrfn4 | 1 | 1.12 | enough cells in well | 243 | 216
Serpina1d | 1 | -0.67 | enough cells in well | 190 | 189
Ces2b | 1 | 1.46 | enough cells in well | 312 | 304
1810043J12RIK | 1 | – | fewer than 50 cells per well; well left out of calls | 90.8 | 43
Boc | 1 | 0.07 | enough cells in well | 0 | 167
Mob3b | 1 | 5.3 (active) | enough cells in well | 476 | 382
Folr2 | 1 | 0.6 | enough cells in well | 343 | 252
Ift81 | 1 | 2.74 | enough cells in well | 329 | 322
Or2n1d | 1 | -1.27 | enough cells in well | 145 | 40.1
Tmprss2 | 1 | – | fewer than 50 cells per well; well left out of calls | 11.5 | 0
Top2a | 1 | 0.62 | enough cells in well | 261 | 175
Or4e5 | 1 | 1.06 | enough cells in well | 232 | 173
Or2m13 | 1 | 2.4 | enough cells in well | 359 | 196
Eif2ak4 | 1 | 0.81 | enough cells in well | 238 | 77.9
Wnt8a | 1 | -0.52 | enough cells in well | 162 | 222
Chp1 | 1 | 0.08 | enough cells in well | 227 | 90.9
Ccr6 | 1 | -0.22 | enough cells in well | 182 | 303
Cdc123 | 1 | -0.06 | enough cells in well | 284 | 201
Fut9 | 1 | -0.8 | enough cells in well | 225 | 70.5
Prrx1 | 1 | -0.52 | enough cells in well | 159 | 197
Tafa2 | 1 | -1.05 | enough cells in well | 147 | 109

Ordered by “Tnf reporter intensity, replicate 1” (lowest first): 9 of the entries above
gene symbol | reagent | Tnf reporter robust z-score | fewer than 50 cells in well | Tnf reporter intensity, replicate 1 | Tnf reporter intensity, replicate 2
V1rb6 (retired record) | 1 | -1.67 (active) | enough cells in well | 47.3 | 42.9
Pou2f2 | 1 | -0.31 | enough cells in well | 99.6 | 133
Med12 | 1 | -1.18 | enough cells in well | 135 | 83.5
Tcf20 | 1 | -1.31 (active) | enough cells in well | 148 | 63.2
Tent5b | 1 | – | fewer than 50 cells per well; well left out of calls | 154 | 53.8
Glis2 | 1 | -0.59 | enough cells in well | 192 | 149
Kcnj15 | 1 | 0.6 | enough cells in well | 221 | 166
Lrfn4 | 1 | 1.12 | enough cells in well | 243 | 216
Msantd4 | 1 | 0.7 | enough cells in well | 267 | 188

Continued:
gene symbol | reagent | Tnf reporter robust z-score | fewer than 50 cells in well | Tnf reporter intensity, replicate 1 | Tnf reporter intensity, replicate 2
Pdk4 | 1 | -0.34 | enough cells in well | 158 | 157
Cfap126 | 1 | – | fewer than 50 cells per well; well left out of calls | 226 | 308
Fuca1 | 1 | 0.19 | enough cells in well | 313 | 214
Spag4 | 1 | -0.81 | enough cells in well | 79.9 | 27.3
Vwa5b2 | 1 | 1.79 | enough cells in well | 0 | 266
Vwa5b2 | 2 | 1.6 | enough cells in well | 326 | 197
1600012H06Rik | 1 | – | fewer than 50 cells per well; well left out of calls | 65 | 0
Smyd1 | 1 | – | fewer than 50 cells per well; well left out of calls | 63.1 | 38.7
Nfkb2 | 1 | 0.47 | enough cells in well | 284 | 133
Cdkn1a | 1 | -0.84 | enough cells in well | 125 | 126
Armc5 | 1 | -0.01 | enough cells in well | 191 | 224
Cox8a | 1 | -0.15 | enough cells in well | 171 | 171
Uba2 | 1 | – | fewer than 50 cells per well; well left out of calls | 78.3 | 48
Sult2a8 | 1 | -0.68 | enough cells in well | 207 | 49.4
Krt12 | 1 | 0.17 | enough cells in well | 244 | 165
Erich3 | 1 | -1.17 | enough cells in well | 133 | 47
Pex16 | 1 | 0.31 | enough cells in well | 256 | 208
Akap5 | 1 | -0.71 | enough cells in well | 128 | 142
Zyx | 1 | 0.75 | enough cells in well | 373 | 247
Ambn | 1 | -0.45 | enough cells in well | 122 | 210
Purb | 1 | -0.63 | enough cells in well | 113 | 97
Pbrm1 | 1 | 1.73 | enough cells in well | 313 | 136
Umps | 1 | 0.29 | enough cells in well | 271 | 230
